Measurements published in PubChem BioAssay AID493014 (National Center for Advancing Translational Sciences (NCATS), 2011).
Hit rate of the full screen: of about 340,000 compounds, about 170 (0.05%) were called active. This list was built around the results that the source calls inconclusive (neither active nor inactive); the mix of calls is not that of the screen. Calls come from the whole dose curve; as a rule, active = well fitted inhibition curve with a large enough effect in the signal ratio, with a control signal flat (not every such curve was filed as active); inconclusive = small, poorly fitted or top-dose-only effect, or effect the other way, or a change in a side signal; inactive = flat fitted curve, though single readings scatter; the % refers to the signal ratio. A potency beside an inconclusive call is a rough fit, not a confirmed value.

Experiment: qHTS Assay to Find Inhibitors of Chronic Active B-Cell Receptor Signaling;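 for activity change, negative = inhibition: plate controls were basal doxycycline-induced cells for no effect and cells given 10 µM MG132 for full effect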
Conditions: ABC-DLBCL IkBa-CBG/CBR reporter, luminescence ratio (green luciferase fused to IkBa over red control in TMD8 lymphoma cells), 4 h; activity change, negative = inhibition: at 46.1 µM (top of the series) unless noted
How it was run: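 Compounds up to 46 uM were incubated four hours with TMD8 cells whose green CBG68 luciferase is fused to IkappaBalpha; red CBR luminescence normalised the signal, and concentration-effect curves were fitted to fusion, red and ratio data.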
Potency is the fitted concentration of half-maximal effect.

SMILES | activity change, negative = inhibition | Potency
COc1ccc(CCN2C(=O)N[C@@H](C(C)C)C2=O)cc1 | inactive | –
CC(CNC(=O)c1ccc(N)cc1)NC(=O)c1ccc(N)cc1 (centres undefined) | – | inconclusive: 35.5 µM [falling, single point]
CC(C)N(C(=O)[C@H]1CC(CC(=O)NCCCN(C)C)C(=O)N2CCc3c([nH]c4ccccc34)[C@]12C)C(C)C (some centres undefined) | inconclusive: -0.0725% | –
O=C(O)C1CCCCC1C(=O)NCCCCc1ccccc1 (centres undefined) | inconclusive: 0.764% | –
COc1cccc(C2C=C(c3cccs3)Nc3ncnn32)c1OC (centres undefined) | inactive | –
COc1cccc(OCc2nn3c(=O)c(-c4ccccc4)nnc3s2)c1 | inconclusive: 0.179% | –
COc1cccc(CN(C)C(=O)COc2ccc(C(=O)c3ccc(Cl)cc3)cc2)c1OC | inconclusive: -12.3% | –
CCCCCCSc1nc(O)c(C2OC(=O)c3c2ccc(OC)c3OC)c(=O)n1CC (centres undefined) | – | inconclusive: 4.11 µM [falling, full curve, poor fit]
O=C(CSc1ccc2ccccc2n1)N/N=C/c1ccccc1O | – | inconclusive: 2.82 µM [falling, full curve]
Cc1nc2ncnn2c(C)c1Cc1ccccc1Cl | inconclusive: 16% | –
CC(=O)c1sc(NC(=O)c2c(F)cccc2F)nc1-c1ccccc1 | inconclusive: 1.82% | –
COc1ccc(NC(=O)c2ccc(S(=O)(=O)N3CCOCC3)cc2)c(OC)c1 | inconclusive: 0.228% | –
CCOC(=O)Cc1csc(NC(=S)NC(=O)c2ccccc2C)n1 | – | inconclusive: 22.4 µM [falling, single point]
O=C(/C=C/c1ccccc1)Nc1nc(-c2ccncc2)cs1 | inconclusive: 4.91% | –
CCOc1cc(C(=O)Nc2ccc(F)cc2)cc(Br)c1OC | inconclusive: -0.918% | –
Cc1ccccc1CN(c1ccc(C(=O)N2CCc3ccccc3C2)cc1)S(C)(=O)=O | inconclusive: 5.74% | –
O=C(c1cc(-c2cccs2)on1)N1CCN(c2ccc(F)cc2)CC1 | inactive | –
C=CCNC(=S)N/N=C(\C)c1ccc(-n2ccnc2)cc1 | inactive | –
COc1ccc(CNC(=O)C2CC(c3ccc(OC)cc3)=NO2)cc1 (centres undefined) | inactive | –
Cc1cccc(C)c1Nc1c(-c2ccccc2O)nc2ncccn12 | inconclusive: -2.93% | –
CCOC(=O)c1c(C)[nH]c(C(=O)OCC(=O)N(C)C2CCS(=O)(=O)C2)c1C (centres undefined) | – | inconclusive: 13 µM [falling, partial curve, poor fit]
C=CCCC(=O)Nc1nc(C)c(-c2csc(Nc3cc(OC)ccc3OC)n2)s1 | – | inconclusive: 11.2 µM [falling, partial curve, poor fit]
Cn1c(=O)c2cc(S(=O)(=O)Nc3ccc4c(c3)OCO4)ccc2n(C)c1=O | inconclusive: -3.97% | –
Brc1ccc(-c2csc(N3CCOCC3)n2)cc1 | inconclusive: 19.3% | –
Cc1ccc2[nH]c3c(NCc4ccco4)ncnc3c2c1 | inactive | –
CC(=O)NNc1nc(-c2ccccc2)cs1 | – | inconclusive: 5.62 µM [falling, partial curve, poor fit]
Cc1oc2c(c(C)cc3oc(=O)c(CC(=O)NCC(=O)NCC(=O)NCC(C)O)c(C)c32)c1C (centres undefined) | inconclusive: 2.52% | –

SMILES | activity change, negative = inhibition | Potency
Cc1ccc(C(=O)Nc2ccc(F)cc2)cc1S(=O)(=O)N1CCOCC1 | inconclusive: -3.68% | –
COc1ccc2oc(=O)c(C(=O)N3CCCc4ccccc43)cc2c1 | inconclusive: 0.638% | –
NNC(=O)c1[nH]c2ccc(Br)cc2c1-c1ccccc1 | – | inconclusive: 2.82 µM [falling, full curve]
Cc1cc(C(=O)COC(=O)c2ccc3c(c2)OCO3)c(C)n1Cc1cccs1 | inactive | –
O=C(CCN1C(=O)/C(=C\c2ccco2)SC1=S)Nc1ccc(C(=O)O)c(O)c1 | – | inconclusive: 8.91 µM [rising, partial curve, poor fit]
COc1ccc(CNc2cc(C)ccn2)c(O)c1 | inconclusive: 3.03% | –
O=C(N/C(=C/c1ccccc1F)C(=O)N1CCCCC1)c1ccccc1 | inconclusive: -2.43% | –
CC(C)n1c(N2CCN(C(=O)NCc3ccccc3)CC2)nc2ccccc21 | inactive | –
O=C(NNC(=O)c1ccc[nH]1)c1cc(Cl)cc(Cl)c1 | – | inconclusive: 25.1 µM [falling, single point]
O=C(c1ccc(F)c(S(=O)(=O)N2CCOCC2)c1)N1CCN(c2ncccn2)CC1 | inconclusive: 3.45% | –
COc1ccc2nc(N/C(N)=N/C(=S)Nc3c(C)cccc3C)nc(C)c2c1 | inactive | –
COC(=O)N/N=C/c1cc(N=Nc2ccccc2Cl)ccc1O | inconclusive: 2.32% | –
Cc1ccsc1C(=O)N1CCN(C(=O)c2ccco2)CC1 | inconclusive: 2.42% | –
O=C(OCC(=O)c1ccc[nH]1)c1ccc(S(=O)(=O)N2CCCCC2)cc1 | inconclusive: 3.44% | –
COc1ccc(CN(CCC#N)C(=S)NC(=O)c2ccccc2)cc1 | inconclusive: -15.6% | –
COc1ccc(OC)c(C(c2nnnn2Cc2ccccc2)N2CCN(C3CCCCC3)CC2)c1 (centres undefined) | inactive | –
COc1ccc(Nc2c3c(nc4ccccc24)CCC3)cc1 | inconclusive: 3.51% | –
O=C(Nc1nc(-c2ccc(Cl)cc2)cs1)c1cccnc1 | – | inconclusive: 4.61 µM [rising, partial curve, poor fit]
C/C(=N\Nc1ccc(Cl)c(C(=O)O)c1)c1cc2ccccc2o1 | – | inconclusive: 22.4 µM [falling, single point]
CO/N=C/c1cc([N+](=O)[O-])ccc1Sc1ccc(C)cc1 | inconclusive: 1.26% | –
CC(C)c1ccc(C2c3[nH]c4ccccc4c3C[C@H]3C(=O)N(c4ccccc4C(=O)N4CCC[C@H]4C(=O)O)C(=O)N23)cc1 (some centres undefined) | – | inconclusive: 17.8 µM [rising, partial curve, poor fit]
CC(/C=N/NC(=O)c1cc(-c2cccs2)[nH]n1)=C\c1ccccc1 | – | inconclusive: 8.2 µM [falling, partial curve]
CCOc1cc(/C=C2/COc3ccccc3C2=O)ccc1OCC(=O)N(C)C | – | inconclusive: 4.47 µM [falling, single point]
CCOC(=O)Cc1csc(NC(=O)c2ccc(Cl)s2)n1 | inconclusive: -0.579% | –
COc1cc(C(=O)Nc2nc3ccccc3s2)ccc1OCc1c(C)noc1C | – | inconclusive: 1.12 µM [rising, full curve, poor fit]
COc1cccc(C(=O)NC(=S)N2c3ccccc3CC2C)c1OC (centres undefined) | inconclusive: 8.98% | –
N#C/C(=C\c1cccnc1)c1ccccc1[N+](=O)[O-] | – | inconclusive: 35.5 µM [falling, single point]

Sorted by molecular weight (falling): part of the list above.
SMILES | activity change, negative = inhibition | Potency
Cc1ccc(C(=O)Nc2ccc(F)cc2)cc1S(=O)(=O)N1CCOCC1 | inconclusive: -3.68% | –
COC(=O)N/N=C/c1cc(N=Nc2ccccc2Cl)ccc1O | inconclusive: 2.32% | –
COc1ccc(Nc2c3c(nc4ccccc24)CCC3)cc1 | inconclusive: 3.51% | –
N#C/C(=C\c1cccnc1)c1ccccc1[N+](=O)[O-] | – | inconclusive: 35.5 µM [falling, single point]

(further entries)

SMILES | activity change, negative = inhibition | Potency
COc1ccc(NS(=O)(=O)c2coc(C(N)=O)c2)cc1Cl | inconclusive: 3.01% | –
O=[N+]([O-])c1cnc(Sc2ccncn2)s1 | inconclusive: 23.5% | –
CCN(CC)C(=O)c1ccccc1NC(=O)c1cccc(S(=O)(=O)N2CCC(C)CC2)c1 | – | inconclusive: 25.1 µM [falling, single point]
O=C(Nc1ccccc1)Nc1nc(-c2ccc(F)c(F)c2)cs1 | inconclusive: -19.8% | –
CCOC(=O)CSc1nc2ccccc2n1CC(=O)NC(C)(C)C | inactive | –
Cn1c(CN2CCCCC2)nc2cc(NC(=O)c3ccc(Cl)cc3)ccc21 | inconclusive: -7.65% | –
CC(=O)Nc1ccc(NC(=O)CN(C)S(=O)(=O)c2ccc3c(c2)CCC(=O)N3)cc1 | inactive | –
Cc1cc(C)cc(C(=O)Nn2cnnc2)c1 | inactive | –
COc1ccc(/C=N/Nc2nnc(C)n2N)cc1OC(C)=O | – | inconclusive: 22.4 µM [falling, single point]
Cc1ccc2nc(NC(=O)CS(=O)(=O)Cc3ccccc3)sc2c1 | inconclusive: 0.377% | –
COc1ccc(/C=C(\NC(=O)c2ccc([N+](=O)[O-])cc2)C(=O)N2CCOCC2)cc1 | inconclusive: 20% | –
CC(C)C[C@H](NC(=O)c1nc[nH]c1C(=O)N[C@@H](CC(C)C)C(=O)OC(C)(C)C)C(=O)OC(C)(C)C | inactive | –
CCn1c(=O)cc(OCC(=O)Nc2ccccc2Cl)c2ccccc21 | inactive | –
COc1ccccc1-n1c(CCn2nc(C)c(Br)c2C)n[nH]c1=S | – | inconclusive: 11.6 µM [falling, partial curve, poor fit]
S=C(NNC(=S)Nc1ccccc1)Nc1ccccc1 | – | inconclusive: 22.4 µM [falling, single point]
O=c1[nH]c2ccccc2nc1/C=C/c1ccc(O)cc1 | – | inconclusive: 25.1 µM [falling, single point]
Cc1ccc(NC(CNS(=O)(=O)c2ccc(Cl)cc2)c2ccccc2)cc1 (centres undefined) | inactive | –
CC1=C(C(=O)Nc2ccccc2F)C(c2ccsc2)C2=C(CC(C)(C)CC2=O)N1 (centres undefined) | inconclusive: -2.48% | –
O=C(/C=C\Nc1ccccc1Br)c1ccc2c(c1)OCO2 | – | inconclusive: 22.4 µM [falling, partial curve]
COC(=O)Cc1nc2ccccc2[nH]1 | inconclusive: -1.31% | –
N#Cc1c(NC(=O)CSc2ncnc3sccc23)oc(-c2ccco2)c1-c1ccco1 | inconclusive: 11.2% | –
C=CCN(Cc1cc(OC)ccc1OC)C(=O)c1cc2ccc(OC)cc2[nH]1 | inactive | –
C=CCC[C@@H](Cc1ccc(F)cc1)C(=O)OC[C@H](C)NC(=O)[C@@H](CC=C)CC(=O)N(CCO)Cc1ccccc1 | inconclusive: -16.8% | –
S=c1nc(C2CC2)[nH]c2ccccc12 | – | inconclusive: 23.1 µM [falling, single point]
COc1ccc(/C=N/NC(=O)c2cc(-c3ccccc3)nc3ccccc23)c(OC)c1 | inactive | –
